In patent US20180362629A1 (ZOETIS BELGIUM S A, published 2018):
Positions count from the first letter of the chain named. Results are given in words; binding and its absence hold for the method and conditions named. Some results given as binding are weak or reduced against the parent protein; the word gives no strength.

B1: PR-1254982 (antibody, mouse IgG1, V domains shown)
VH: QVQLKESGPGLVAPSQSLSITCTVSGFSLTGYNINWVRQPPGKGLEWLGMIWGYGDTDYNSALKSRLSISKDNSKSQVFLKMNSLQTDDTARYYCARDHYGGNDWYFDVWGTGTTVTVSS
VL: DIQMTQTTSSLSASLGDRVTITCRASQDITNYLNWYQQKPDGTVKLLIYYTSRLHSGVPSRFSGSGSGTDYSLTISNLDQEDIATYFCQQGKTLPRTFGGGTKLEIKR
B2: PR-1254972 (antibody, mouse IgG2b, V domains shown)
VH: EVHLVESGGGLVKPGGFLILSCAASGFTFSDYYMFWIRQTPGKRLEWVATISDGGSYTYYTDNVKGRFTISRDNVKNNLYLQMSHLKSADTAMYYCARDWSDSEGFAYWGQGTLVTVSA
VL: DVLMTQTPLSLPVSLGDQASISCRSSQSIVQSNGNTYLEWYLQKPGQSPKLLIYKVSNRFSGVPDRFSGSGSGTDFTLKISRVEAEDLGVYYCFQGSHVPFTFGSGTKLEIKR
B3: PR-1254981 (antibody, mouse IgG1, V domains shown)
VH: EVQLVESGGGAVKPGGSLTLSCAASGFTFSNHYMYWVRQTPEKRLEWVASISDGGAYTFYPDTVKGRFTISRDNVNNNLYLQMRHLKSEDTAMYYCTREESANNGFAFWGQGTLVTVSA
VL: B2 VL with V30L, Q31H, K50N, K55R, S97A

What follows are binders tested against recombinant canine β NGF (canine) (assay: SPR (Biacore), mAb captured on anti-mouse IgG Fc).

binding | Binder
binds | B1
binds | B2
binds | B3
